These are yes or no findings as the source states them, for the method shown. Some binding calls cover weakened binding; strength is not graded here.
Legend:
[1] = target: Jag1 on transiently transfected 293 cells (Homo sapiens (Human)) (UniProt P78504); assay: FACS on transiently transfected 293 cells, 2 µg/ml
[2] = target: Jag1 on transiently transfected 293 cells (Homo sapiens (Human)) (UniProt P78504); assay: FACS on transiently transfected 293 cells
[3] = target: Jag1 on transiently transfected 293 cells (Homo sapiens (Human)) (UniProt P78504); assay: FACS of transiently transfected 293 cells, rrNotch1-Fc at 2 µg/ml, goat anti-human IgG-PE [middle panel]
[4] = target: DLL1 on transiently transfected 293 cells (Homo sapiens (Human)) (UniProt O00548); assay: FACS on transiently transfected 293 cells, 2 µg/ml
[5] = target: DLL1 on transiently transfected 293 cells (Homo sapiens (Human)) (UniProt O00548); assay: FACS on transiently transfected 293 cells
[6] = target: DLL1 on transiently transfected 293 cells (Homo sapiens (Human)) (UniProt O00548); assay: FACS of transiently transfected 293 cells, rrNotch2-Fc at 2 µg/ml, goat anti-human IgG-PE [bottom panel]

Amino acid sequences for entries named in this document (tags omitted). A change or cut given only in a name is not applied to a line headed by its entry. Residues count along the entry.
UniProt P78504: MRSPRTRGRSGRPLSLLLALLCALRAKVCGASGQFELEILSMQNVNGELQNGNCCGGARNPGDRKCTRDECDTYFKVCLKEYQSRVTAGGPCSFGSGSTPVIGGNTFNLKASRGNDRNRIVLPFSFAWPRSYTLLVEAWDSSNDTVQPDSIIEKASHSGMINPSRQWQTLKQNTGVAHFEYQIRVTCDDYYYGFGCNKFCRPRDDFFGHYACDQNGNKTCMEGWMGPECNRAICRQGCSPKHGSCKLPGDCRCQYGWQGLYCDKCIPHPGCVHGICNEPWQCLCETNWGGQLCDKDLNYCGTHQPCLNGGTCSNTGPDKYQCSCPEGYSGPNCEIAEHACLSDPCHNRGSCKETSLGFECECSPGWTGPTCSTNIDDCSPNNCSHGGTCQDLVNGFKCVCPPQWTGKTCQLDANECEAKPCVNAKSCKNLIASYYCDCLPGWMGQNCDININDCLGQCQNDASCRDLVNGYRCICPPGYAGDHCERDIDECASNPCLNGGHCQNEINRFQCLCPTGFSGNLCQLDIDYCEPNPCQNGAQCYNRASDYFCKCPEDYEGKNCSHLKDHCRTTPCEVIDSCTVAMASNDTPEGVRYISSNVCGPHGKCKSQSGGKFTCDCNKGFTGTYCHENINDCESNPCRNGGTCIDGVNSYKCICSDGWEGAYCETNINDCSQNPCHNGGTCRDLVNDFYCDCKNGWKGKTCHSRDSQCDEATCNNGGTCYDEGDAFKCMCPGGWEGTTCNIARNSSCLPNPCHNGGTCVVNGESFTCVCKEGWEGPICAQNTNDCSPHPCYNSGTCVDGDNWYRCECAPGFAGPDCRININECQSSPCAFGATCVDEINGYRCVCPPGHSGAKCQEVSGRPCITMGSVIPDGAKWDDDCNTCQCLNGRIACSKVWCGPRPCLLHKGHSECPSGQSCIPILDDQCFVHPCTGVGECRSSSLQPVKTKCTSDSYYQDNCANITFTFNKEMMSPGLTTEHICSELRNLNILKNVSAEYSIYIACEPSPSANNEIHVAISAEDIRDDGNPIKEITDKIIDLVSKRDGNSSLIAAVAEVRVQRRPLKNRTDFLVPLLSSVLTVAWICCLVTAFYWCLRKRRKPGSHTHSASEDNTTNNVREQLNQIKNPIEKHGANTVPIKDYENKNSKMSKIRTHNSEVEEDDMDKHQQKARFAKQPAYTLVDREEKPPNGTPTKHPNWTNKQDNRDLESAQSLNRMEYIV
UniProt O00548: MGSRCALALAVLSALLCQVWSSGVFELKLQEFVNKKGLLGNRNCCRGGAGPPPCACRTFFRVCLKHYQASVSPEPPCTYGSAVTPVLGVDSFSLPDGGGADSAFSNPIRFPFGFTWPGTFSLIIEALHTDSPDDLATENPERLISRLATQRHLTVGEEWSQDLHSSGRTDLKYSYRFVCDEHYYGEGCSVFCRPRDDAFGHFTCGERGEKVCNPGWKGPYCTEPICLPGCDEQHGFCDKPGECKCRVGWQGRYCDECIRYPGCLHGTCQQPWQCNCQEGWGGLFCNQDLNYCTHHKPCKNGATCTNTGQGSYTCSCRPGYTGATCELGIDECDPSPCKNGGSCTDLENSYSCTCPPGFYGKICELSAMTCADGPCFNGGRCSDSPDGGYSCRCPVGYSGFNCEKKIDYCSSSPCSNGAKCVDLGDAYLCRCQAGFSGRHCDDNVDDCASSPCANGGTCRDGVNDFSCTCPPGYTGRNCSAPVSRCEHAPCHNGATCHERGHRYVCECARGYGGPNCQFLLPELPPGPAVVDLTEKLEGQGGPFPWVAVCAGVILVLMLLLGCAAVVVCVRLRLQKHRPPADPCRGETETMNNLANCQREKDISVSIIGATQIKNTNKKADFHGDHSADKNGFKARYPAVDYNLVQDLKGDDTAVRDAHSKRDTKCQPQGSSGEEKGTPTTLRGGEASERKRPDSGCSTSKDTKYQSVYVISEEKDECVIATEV
UniProt Q07008, residues 19-488: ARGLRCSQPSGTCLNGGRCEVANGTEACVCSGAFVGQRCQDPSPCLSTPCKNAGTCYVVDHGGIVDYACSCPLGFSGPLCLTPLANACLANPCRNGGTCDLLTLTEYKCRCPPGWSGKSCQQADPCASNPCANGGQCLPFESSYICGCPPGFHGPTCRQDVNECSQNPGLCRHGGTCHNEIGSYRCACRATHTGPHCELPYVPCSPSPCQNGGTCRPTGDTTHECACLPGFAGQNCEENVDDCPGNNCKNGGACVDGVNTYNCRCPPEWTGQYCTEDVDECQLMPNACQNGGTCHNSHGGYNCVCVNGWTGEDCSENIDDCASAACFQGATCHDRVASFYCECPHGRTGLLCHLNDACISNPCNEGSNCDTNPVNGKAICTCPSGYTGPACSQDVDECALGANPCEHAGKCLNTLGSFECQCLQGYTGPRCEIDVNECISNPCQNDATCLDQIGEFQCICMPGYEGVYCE
UniProt Q9QW30, residues 26-492: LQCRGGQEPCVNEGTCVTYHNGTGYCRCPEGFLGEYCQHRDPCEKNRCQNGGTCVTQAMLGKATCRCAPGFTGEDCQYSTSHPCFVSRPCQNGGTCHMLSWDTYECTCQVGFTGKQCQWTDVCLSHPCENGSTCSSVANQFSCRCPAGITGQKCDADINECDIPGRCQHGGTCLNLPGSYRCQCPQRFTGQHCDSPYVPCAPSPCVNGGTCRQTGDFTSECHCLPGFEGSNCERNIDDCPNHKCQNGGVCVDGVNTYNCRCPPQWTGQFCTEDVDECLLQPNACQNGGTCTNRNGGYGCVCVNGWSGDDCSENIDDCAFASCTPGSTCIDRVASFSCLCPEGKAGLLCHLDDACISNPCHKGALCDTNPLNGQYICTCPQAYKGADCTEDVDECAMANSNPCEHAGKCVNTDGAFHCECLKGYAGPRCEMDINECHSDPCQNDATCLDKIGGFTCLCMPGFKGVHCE

Measured: binding

recombinant rat Notch1-Fc (from UniProt Q07008 19-488) (Fc fusion)
binds: [1] | [2] | [3]

recombinant rat Notch2-Fc (from UniProt Q9QW30 26-492) (Fc fusion)
binds: [4] | [5] | [6]

— US20080175847A1 (Genentech, published 2008)
